Results published in publication PMC6643034.
No constants are given. Whether binding was seen depends on the method and setting.

T1: P1142_AMBCA (Amblyomma cajennense)
T1 sequence: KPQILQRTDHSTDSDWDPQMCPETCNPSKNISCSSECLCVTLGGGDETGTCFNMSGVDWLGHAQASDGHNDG

T2: P1126_AMBCA (Amblyomma cajennense)
T2 sequence: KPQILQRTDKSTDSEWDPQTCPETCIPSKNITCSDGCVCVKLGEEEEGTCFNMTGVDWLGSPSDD

B1: CCL16 (ligand, UniProt O15467 24-120)
chain: QPKVPEWVNTPSTCCLKYYEKVLPRRLVVGYRKALNCHLPAIIFVTKRNREVCTNPNDDWVQEYIKDPNLPLLPTRNLSTVKIITAKNGQPQLLNSQ
B2: CXCL14 (ligand, UniProt O95715 35-111)
chain: SKCKCSRKGPKIRYSDVKKLEMKPKYPHCEEKMVIITTKSVSRYRGQEHCLHPKLQSTKRFIKWYNAWNEKRRVYEE
B3: CCL1 (ligand, UniProt P22362 24-96)
chain: KSMQVPFSRCCFSFAEQEIPLRAILCYRNTSSICSNEGLIFKLKRGKEACALDTVGWVQRHRKMLRHCPSKRK
B4: CCL3L1 (ligand, UniProt P16619 24-93)
chain: APLAADTPTACCFSYTSRQIPQNFIADYFETSSQCSKPSVIFLTKRGRQVCADPSEEWVQKYVSDLELSA
B5: CCL4L1 (ligand, UniProt Q8NHW4 24-92)
chain: APMGSDPPTACCFSYTARKLPRNFVVDYYETSSLCSQPAVVFQTKRGKQVCADPSESWVQEYVYDLELN
B6: CCL18 (ligand, UniProt P55774 21-89)
chain: AQVGTNKELCCLVYTSWQIPQKFIVDYSETSPQCPKPGVILLTKRGRQICADPNKKWVQKYISDLKLNA
B7: CCL22 (ligand, UniProt O00626 25-93)
chain: GPYGANMEDSVCCRDYVRYRLPLRVVKHFYWTSDSCPRPGVVLLTFRDKEICADPRVPWVKMILNKLSQ
B8: CCL24 (ligand, UniProt O00175 27-119)
chain: VVIPSPCCMFFVSKRIPENRVVSYQLSSRSTCLKAGVIFTTKKGQQFCGDPKQEWVQRYMKNLDAKQKKASPRARAVAVKGPVQRYPGNQTTC
B9: CCL27 (ligand, UniProt Q9Y4X3 25-112)
chain: FLLPPSTACCTQLYRKPLSDKLLRKVIQVELQEADGDCHLQAFVLHLAQRSICIHPQNPSLSQWFEHQERKLHGTLPKLNFGMLRKMG

biological target: T1, P1142_AMBCA (Amblyomma cajennense); assay: BLI; cross-binding screen on OctetRed; evasin held on a nickel-coated biosensor through its C-terminal His tag; each human chemokine at 300 nM; both purified

| Binder | binding |
| --- | --- |
| B1 | no binding (tested: 300 nM) |

biological target: P1170_IXORI (Ixodes ricinus); assay: as above

| Binder | binding |
| --- | --- |
| B2 | no binding (tested: 300 nM) |
| B1 | no binding (tested: 300 nM) |
| B3 | no binding (tested: 300 nM) |
| B4 | no binding (tested: 300 nM) |
| B5 | no binding (tested: 300 nM) |
| B6 | no binding (tested: 300 nM) |
| B7 | no binding (tested: 300 nM) |
| B8 | no binding (tested: 300 nM) |
| B9 | no binding (tested: 300 nM) |

biological target: P1101_IXORI (Ixodes ricinus); assay: as above

| Binder | binding |
| --- | --- |
| B2 | no binding (tested: 300 nM) |
| B1 | no binding (tested: 300 nM) |
| B3 | no binding (tested: 300 nM) |
| B4 | no binding (tested: 300 nM) |
| B5 | no binding (tested: 300 nM) |
| B6 | no binding (tested: 300 nM) |
| B7 | no binding (tested: 300 nM) |
| B8 | no binding (tested: 300 nM) |
| B9 | no binding (tested: 300 nM) |

biological target: T2, P1126_AMBCA (Amblyomma cajennense); assay: as above

| Binder | binding |
| --- | --- |
| B1 | no binding (tested: 300 nM) |
